The list shows a part of the results.

In this assay the test system is T1, CTL2-GFP (C. trachomatis L2/434/Bu, GFP-expressing).
T1 construct: L2/434/Bu, GFP-expressing
Also noted: species or system HeLa; Intracellular C. trachomatis growth in HeLa cells, bulk GFP fluorescence relative to DMSO. As to conditions: bulk GFP, single well; 28.5 h, 10 µM; inhibitor.
Take `CCCCN(/C=N/S(=O)(=O)c1ccccc1)CCCC` [CBK026576]: the “% of control remaining” value was 152.927%.

Regarding `COc1cc2cc(CN(Cc3cccnc3)C(=O)Nc3ccc(F)cc3)c(=O)[nH]c2cc1OC` [CBK108193], the “% of control remaining” value is given as 130.931%.

Regarding `CC(C)N(CCOc1nccnc1/C=C/c1ccccc1)C(C)C` [CBK106889], the “% of control remaining” value was 150.977%.

Regarding `Nc1ncc(-c2ccoc2)nc1-c1ccc(C(=O)N2CCOCC2)cc1` [CBK064076], the “% of control remaining” value worked out at 106.021%.

As for `O=C(c1ccno1)N1CCc2ccccc21` [CBK200409], the “% of control remaining” value is recorded as 121.548%.

As to `Cn1c(=O)n(C)c2cc(S(=O)(=O)NCCOc3ccc(C(=O)O)cc3)ccc21` [CBK299824], the “% of control remaining” value is 131.814%.

Take `O=C(Nc1ccccc1[N+](=O)[O-])C1Cc2ccccc2CN1S(=O)(=O)c1ccc(F)cc1` (stereo not shown) [CBK266129]: the “% of control remaining” value was determined as 207.937%.

On to `CCOC(=O)c1ccc(N2C(=O)CC(N3CCCc4ccccc43)C2=O)cc1` (stereo not shown) [CBK268720], for which the “% of control remaining” value stood at 108.949%.

With `COc1nccnc1OC1CCN(CC(=O)Nc2c(C)cccc2C)CC1` [CBK084249], the “% of control remaining” value is 112.852%.

Take `O=C(CC[C@@H]1CNC(=O)[C@@H]2C[C@H](NC(=O)c3cccc(F)c3)CN12)Nc1ccccc1` [CBK289008]: the “% of control remaining” value is listed as 139.396%.

For the compound `CC(=O)c1ccc(NC(=O)N2Cc3nc[nH]c3C[C@H]2c2nc(-c3ccc(F)cc3)no2)cc1` [CBK288971], the “% of control remaining” value is listed as 117.599%.

On to `CCN(CC)Cc1c(O)ccc2occ(C(=O)c3cc(OC)ccc3OC)c12` [CBK261949], for which the “% of control remaining” value stood at 132.347%.

With `O=C(c1ccccc1F)N1CCN(C2CCN(Cc3ccccc3)CC2)CC1` [CBK263404], the “% of control remaining” value is reported as 105.376%.

In the case of `CC(C)C(=O)Nc1ccc(-c2csc(N3CCN(C)CC3)n2)cc1` [CBK304317C], the “% of control remaining” value is recorded as 94.1234%.

In the case of `COc1ccccc1CN(CCCN)C(=O)NC(C)c1ccccc1` (stereo not shown) [CBK034667C], the “% of control remaining” value is 103.609%.

As to `CCOC(=O)c1sc(C)c(C(N)=O)c1/N=C1\CCCN1` [CBK020893], the “% of control remaining” value stood at 113.062%.

As for `COc1ccc(C(=O)Nc2c(OC)cc(F)cc2OC2CCNCC2)cc1` [CBK050294T], the “% of control remaining” value is listed as 113.059%.

Take `CCC(Sc1nnc2c(n1)[nH]c1ccccc12)C(=O)Nc1sc2c(c1C#N)CCCC2` (stereo not shown) [CBK263917]: the “% of control remaining” value is recorded as 131.017%.

Consider `Cc1cc(C)n(-c2ccc3nnc(CCC(=O)O)n3n2)n1` [CBK307616], for which the “% of control remaining” value is 120.156%.

Regarding `c1ccc(-c2cccc(-c3cc(N4CCN(CCN5CCCC5)CC4)ncn3)c2)cc1` [CBK091164], the “% of control remaining” value came out at 136.984%.

Consider `CCOC(=O)C1CCN(C(=O)CCn2ccc3ccncc32)CC1` [CBK284720], for which the “% of control remaining” value is listed as 141.526%.

As for `N#CCCn1cc(C(=O)N2CCCCC2)c(-c2ccccc2)n1` [CBK305931], the “% of control remaining” value is reported as 102.063%.

On to `COc1ccc(N2CCN(c3cc(-c4cc(C(F)(F)F)cc(C(F)(F)F)c4)ncn3)CC2)cc1OC` [CBK091020], for which the “% of control remaining” value stood at 95.7562%.

For `O=C(Oc1cccc(NC(=O)c2ccco2)c1)c1cccc(S(=O)(=O)N2CCOCC2)c1` [CBK262272], the “% of control remaining” value is 99.3748%.

Regarding `COc1ccc([N+](=O)[O-])c(Oc2cccc(C(F)(F)F)c2)n1` [CBK002796], the “% of control remaining” value turned out to be 108.871%.

Consider `O=C(Nc1cccc(O)c1)c1ccc2c(c1)C(=O)N(c1cccc(N3C(=O)c4ccc(C(=O)Nc5cccc(O)c5)cc4C3=O)n1)C2=O` [CBK261199], for which the “% of control remaining” value came to 99.3519%.

Consider `CCC(CC)C(=O)Nc1nc(OC)cnc1-c1cccc(C(=O)N(C)C)c1` [CBK145392], for which the “% of control remaining” value was found to be 106.466%.

As for `Cc1ccc(CCSCC(=O)O)cn1` [CBK261072], the “% of control remaining” value is listed as 112.509%.

With `COC(=O)CCC(=O)NNC(=O)c1cccc(Br)c1` [CBK261606], the “% of control remaining” value is given as 100%.

In the case of `COc1cc(C)c(CN2CCN(S(=O)(=O)c3cc(C(=O)O)cs3)CC2)cc1OC` [CBK297093], the “% of control remaining” value is recorded as 117.03%.

Take `CCCCN1CCC2CN(CCCC(c3ccc(F)cc3)c3ccc(F)cc3)CCN2C1=O` (stereo not shown) [CBK024880C]: the “% of control remaining” value is 106.134%.

As to `Cc1ccc(-c2cccc(N3CCN(CCN4CCCC4)CC3)n2)cc1C` [CBK037799], the “% of control remaining” value worked out at 155.438%.

With `Cc1nn(C)cc1-c1cncn1CC(C)N1CCC(C)CC1` (stereo not shown) [CBK281789], the “% of control remaining” value turned out to be 144.274%.

Consider `c1c(C2CC2)[nH]c2nc(N3CCCC3)nc(N3CCCC3)c12` [CBK016707G], for which the “% of control remaining” value is listed as 11.0597%.

Consider `O=C(OCCN1CCOCC1)c1ccccc1I` [CBK033860], for which the “% of control remaining” value is listed as 112.794%.

Regarding `COc1ccc(CC2CCCN2C(=O)Cn2cncn2)cc1` (stereo not shown) [CBK306351], the “% of control remaining” value is 130.441%.

With `O=C(O)CNC(=O)CCn1c(-c2ccccc2)cc2ccccc21` [CBK286780], the “% of control remaining” value stood at 127.044%.

In the case of `CCOC(=O)N1CCC(NCC(C)(C)CN(C)C)CC1` [CBK028516], the “% of control remaining” value was determined as 117.826%.

Turning to `CCc1nn(CC(=O)NCC2CC2)c(=O)c2cc3sccc3n12` [CBK284055], the “% of control remaining” value is 139.757%.

Turning to `Cc1cc(C)n(C2CCN(Cc3nc4ccccc4[nH]3)CC2)n1` [CBK281620], the “% of control remaining” value came to 124.848%.

Regarding `COc1ccc(NC(=O)N[C@@H]2C=C[C@@H](c3c(C)nn(CCC#N)c3C)C2)cc1` [CBK288804], the “% of control remaining” value is reported as 114.882%.

Regarding `O=C(NC(c1ccccc1)c1ccsc1)C1CCN(C2Cc3ccccc3C2)CC1` (stereo not shown) [CBK148541], the “% of control remaining” value was 113.627%.

Consider `CCCNC(=O)C[C@@H]1CCN(C(=O)c2ccnc(Cl)c2)C[C@@H]1CC` [CBK289138], for which the “% of control remaining” value is given as 105.046%.

With `O=C(O)c1cc(-c2ccccc2)oc1CSCCO` [CBK286559], the “% of control remaining” value was 113.469%.

As for `COCc1nc(NCCn2c(C)cc(C)nc2=O)cc(C2CCOC2)n1` (stereo not shown) [CBK307495], the “% of control remaining” value turned out to be 114.527%.

As for `CC(C)CN(CC(N)=O)CC(=O)NC1(c2ccccc2)CCC1` [CBK066883T], the “% of control remaining” value is 121.926%.

Regarding `NC(=O)CN1CCCN(c2ccnc(OCCN3CCOCC3)n2)CC1` [CBK083804], the “% of control remaining” value is 114.393%.

As for `COc1ccc(-c2cnc(N)c(N3CCC[C@@H]3CO)n2)c(OC)c1OC` [CBK063505], the “% of control remaining” value worked out at 132.891%.

Consider `CCCc1cc(C(=O)N2CCN(C)C3(CCNC(=O)CC3)C2)ccn1` (stereo not shown) [CBK306815], for which the “% of control remaining” value stood at 137.415%.

With `Cc1cccc(-c2nnn(CC(=O)O)n2)c1` [CBK068105], the “% of control remaining” value is recorded as 99.6665%.

In the case of `COc1cc(NC(=O)c2nc[nH]n2)c(OC)cc1Cl` [CBK288170], the “% of control remaining” value is 104.214%.

With `O=C(Cn1cnc2ccc(F)cc2c1=O)N1Cc2ccccc2C(c2ccccc2)C1` (stereo not shown) [CBK296767], the “% of control remaining” value is given as 133.025%.

On to `CC(=O)Nc1ccc(C(=O)Nc2ccc(S(=O)(=O)N3CCOCC3)cc2)cc1` [CBK264763], for which the “% of control remaining” value was 128.132%.

On to `Cc1ccc2c(N)c(C(=O)Nc3ccc(C#N)cc3)sc2n1` [CBK115348], for which the “% of control remaining” value is 111.298%.

Regarding `Cc1ccc(S(=O)(=O)N(CC(=O)O)c2ccc(Br)cc2)cc1` [CBK287125], the “% of control remaining” value is reported as 122.449%.

As to `COc1ccc(-c2nc(NC(=O)Cc3ccccc3OC(F)(F)F)cnc2-c2cccc(C)c2)cc1` [CBK037551], the “% of control remaining” value worked out at 168.586%.

On to `O=C(O)c1ccc(-c2ccc(/C=C3/NC(=O)N(c4ccc(Cl)cc4)C3=O)o2)cc1` [CBK077970], for which the “% of control remaining” value was determined as 87.3138%.

Take `Cn1ccc(C(=O)NC(Cc2ccsc2)c2ccccn2)cc1=O` (stereo not shown) [CBK285273]: the “% of control remaining” value is listed as 104.838%.

On to `N#Cc1ccc(C(=O)N2CCC3(CC2)NC(=O)c2cc(-c4ccoc4)ccc2O3)cc1` [CBK115852], for which the “% of control remaining” value was found to be 139.501%.

On to `O=C(c1ccc(F)cc1)N1CCC(O)(c2ccccn2)CC1` [CBK283669], for which the “% of control remaining” value is 101.973%.

On to `Cn1nc(CC(=O)Nc2ccccc2C(=O)O)c2ccccc2c1=O` [CBK286558], for which the “% of control remaining” value came out at 110.166%.

With `O=C(Cn1cnc2c(cnn2-c2cccc(Cl)c2)c1=O)N1CCCCC1` [CBK287691], the “% of control remaining” value is on record as 144.482%.

Take `COc1ccc([C@@]23CC[C@@H](NC(=O)Nc4ccc(Cl)c(C(F)(F)F)c4)C[C@@H]2N(C)CC3)cc1OC` [CBK038224C]: the “% of control remaining” value is 133.554%.

For `O=C(c1cccnc1)N1C2CCC1CC(c1ccc(F)cc1)C2` (stereo not shown) [CBK283762], the “% of control remaining” value is listed as 111.349%.

Regarding `COc1ccc([C@@]23CC[C@@H](NC(=O)Nc4ccccc4C#N)C[C@@H]2N(C)CC3)cc1OC` [CBK047540T], the “% of control remaining” value is on record as 59.315%.

For the compound `CCCc1cc(CNC(=O)c2cnn(-c3ccc(F)cc3)c2)on1` [CBK282463], the “% of control remaining” value was 140.635%.

Turning to `CC(C)CCOc1nccnc1-c1ccc2c(c1)OCO2` [CBK106711], the “% of control remaining” value came out at 120.044%.

As to `O=C(O)c1cccc(Sc2cc(N3CCCC3)ncn2)c1` [CBK093586], the “% of control remaining” value worked out at 107.987%.

As to `O=C1CC(C(=O)Nc2cccc(C(=O)O)c2)C(c2ccccc2)O1` (stereo not shown) [CBK293968], the “% of control remaining” value is 170.581%.

For `NC(=O)CN1CCC(Oc2cncc(OCC3COc4ccccc4O3)n2)C1` (stereo not shown) [CBK084372], the “% of control remaining” value is reported as 107.674%.

For the compound `CC(C)c1nccn1CCCNC(=O)N1CCCC(c2ccncn2)C1` (stereo not shown) [CBK307448], the “% of control remaining” value is reported as 153.053%.

For the compound `O=C(N[C@H]1C[C@H]2C(=O)NC[C@@H](CCC(=O)N3CCCCC3)N2C1)c1cccs1` [CBK289010], the “% of control remaining” value is 129.442%.

In the case of `CCN(CC)CCN1C(=O)C(O)=C(C(=O)c2ccc3c(c2)OCO3)C1c1cccnc1` (stereo not shown) [CBK266465], the “% of control remaining” value stood at 152.497%.

For the compound `c1ccc(Cn2c(-c3ccccc3)c(-c3ccccc3)c3c2ncn2nc(-c4cccnc4)nc32)cc1` [CBK265359], the “% of control remaining” value is reported as 110.802%.

`CCOC(=O)c1cc(CC)sc1NC(=O)c1cc2ccccc2o1` [CBK267596]: the “% of control remaining” value amounted to 131.497%.

For `O=c1cc(CO)oc(CN2CCSCC2)c1O` [CBK288404], the “% of control remaining” value was found to be 133.536%.

(Values after paper PMC12040169 (PLOS Biology, 2025).)
